From publication PMC9297786 (Molecular Oncology, 2022)

Tested on: K562
Design: MTT cell growth inhibition assay, absorbance at 490 nm
Settings: 48 h; inhibitor
Experimental: Exponential‐phase cells were seeded into 96‐well plates at a density of 2 × 10^4 cells per well in complete medium. After 24 h, cells were treated with drugs at indicated concentrations and incubated for 48 h. Fresh medium containing 20 μL MTT solution (5 mg·mL^−1) was then added to each well. Then plates were incubated for another 4 h at 37 °C. After removing the medium, 150 μL DMSO was added to each well. The absorbance was recorded at 490 nm in the microplate reader and the inhibition ratio (I%) was calculated. The cell growth assay was conducted as described previously. K562 cells were cultured in IMDM containing 10% fetal bovine serum, 100 U·mL^−1 penicillin and 100 U·mL^−1 streptomycin. […] MEG‐01 cells were cultured in DMEM containing 10% fetal bovine serum, 100 U·mL^−1 penicillin and 100 U·mL^−1 streptomycin. […] Cells were grown at 37 °C in a humidified atmosphere with 5% CO2. […] To identify an EPHB4‐specific inhibitor with a potential of rapid translation into clinic, a pool of clinically approved TKIs and compounds was screened in this study (Fig. S2 and Table S4).

`CCC(=O)C(CC(C)N(C)C)(c1ccccc1)c1ccccc1` (stereo not shown) [methadone] was tested, and the “Inhibition rate (%, 10 μM)” value was -33.43%.
